Results are given in words; binding and its absence hold for the method and conditions named. Binding seen in cells or lysates may run through a third protein. Some entries that bind do so weakly or less than the wild type. For some assays here: Where a sequence is shown, tags or fusion partners need not be part of it.

The chains behind the UniProt entries cited, without tags or fusion partners.
UniProt P27694: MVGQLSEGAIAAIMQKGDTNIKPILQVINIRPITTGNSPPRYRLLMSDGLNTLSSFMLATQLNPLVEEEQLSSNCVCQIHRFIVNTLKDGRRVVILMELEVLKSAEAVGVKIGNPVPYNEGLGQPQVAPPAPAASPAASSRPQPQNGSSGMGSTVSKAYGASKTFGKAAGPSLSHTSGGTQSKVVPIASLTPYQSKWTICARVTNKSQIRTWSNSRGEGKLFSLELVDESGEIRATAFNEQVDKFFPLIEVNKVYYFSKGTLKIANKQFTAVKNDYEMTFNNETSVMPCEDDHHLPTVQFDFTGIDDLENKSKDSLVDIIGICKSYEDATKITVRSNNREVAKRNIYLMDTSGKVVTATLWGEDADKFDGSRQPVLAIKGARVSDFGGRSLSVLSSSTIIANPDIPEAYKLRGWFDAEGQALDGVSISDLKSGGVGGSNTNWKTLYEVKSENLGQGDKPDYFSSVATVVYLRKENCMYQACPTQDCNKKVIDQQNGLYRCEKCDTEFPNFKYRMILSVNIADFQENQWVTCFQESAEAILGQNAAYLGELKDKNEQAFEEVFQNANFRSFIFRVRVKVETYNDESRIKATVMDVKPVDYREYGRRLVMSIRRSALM
UniProt P15927: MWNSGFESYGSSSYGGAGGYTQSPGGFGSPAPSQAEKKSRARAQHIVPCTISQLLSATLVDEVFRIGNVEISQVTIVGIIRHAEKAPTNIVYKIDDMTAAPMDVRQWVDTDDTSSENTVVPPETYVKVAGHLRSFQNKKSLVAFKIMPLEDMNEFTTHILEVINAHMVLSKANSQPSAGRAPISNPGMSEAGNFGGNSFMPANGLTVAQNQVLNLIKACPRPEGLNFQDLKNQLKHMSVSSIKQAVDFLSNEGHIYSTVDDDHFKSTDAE

Three substances from paper doi:10.1101/751974 can be followed below.

Test [1] deals with GST-MCM8IP RBM (RPA-Binding Mutant) (human) (UniProt Q8N3J3). In words: pull-down.
In a further test the target is T1, GST-MCM8IP WT (human) (UniProt Q8N3J3).
T1 sequence: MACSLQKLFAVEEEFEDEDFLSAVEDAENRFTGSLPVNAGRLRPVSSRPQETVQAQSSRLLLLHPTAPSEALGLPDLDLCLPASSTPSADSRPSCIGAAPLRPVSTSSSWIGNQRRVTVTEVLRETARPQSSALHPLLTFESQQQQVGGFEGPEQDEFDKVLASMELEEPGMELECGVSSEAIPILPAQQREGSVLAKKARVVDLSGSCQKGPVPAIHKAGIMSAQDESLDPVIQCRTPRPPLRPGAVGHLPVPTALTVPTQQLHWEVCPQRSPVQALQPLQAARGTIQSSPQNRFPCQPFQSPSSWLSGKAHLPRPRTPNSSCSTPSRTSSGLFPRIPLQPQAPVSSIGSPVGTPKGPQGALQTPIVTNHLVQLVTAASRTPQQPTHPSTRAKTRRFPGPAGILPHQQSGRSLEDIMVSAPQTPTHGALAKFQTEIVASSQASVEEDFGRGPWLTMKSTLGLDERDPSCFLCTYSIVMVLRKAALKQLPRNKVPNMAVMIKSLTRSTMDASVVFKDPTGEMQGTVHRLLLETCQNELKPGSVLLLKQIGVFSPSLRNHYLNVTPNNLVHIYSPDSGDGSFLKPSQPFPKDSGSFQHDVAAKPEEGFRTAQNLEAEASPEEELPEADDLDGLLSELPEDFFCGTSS
Description: pull-down.

The target of test [2] is GST-MCM8IP, first 215 residues (human) (UniProt Q8N3J3). In words: pull-down.
The next test concerns the target T2, HA-MCM8IP WT (human) (UniProt Q8N3J3).
T2 sequence: T1 sequence
In words: co-IP.

“RPA1 expressed in bacteria (from UniProt P27694 1-616)”: the binding result in test [1] is listed as “no binding”; in the test with GST-MCM8IP WT (human), “binds”; in test [2], “binds”.
Take “RPA1, endogenous (from UniProt P27694 1-616)”: in the test with HA-MCM8IP WT (human), the binding entry is given as “binds”.
Turning to “RPA2, endogenous (from UniProt P15927 1-270)”, in the test with HA-MCM8IP WT (human), the binding entry is reported as “binds”.
